Measurements reported in PubChem BioAssay AID1159578 (Peter MacCallum Cancer Centre, 2015)

Assay: 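Knock-downs that alter how fast lymphatic endothelial cells migrate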 (primary screen)
Cell system: human lymphatic endothelial cells
Reagent: siRNA pool against human genes, 40 nM
Timing: 48 h after transfection
Read-out: 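Cells stained with dye and imaged after a scratch; covered wound area and nuclei counted, duplicates averaged, migration set against mock wells and turned into a robust z-score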
Direction: migration robust z-score: higher = faster migration into the scratch; nuclei per well: higher = more cells in the well
Rule for the call: 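Migration changed when robust z exceeds 2 or falls below -2 and mean nuclei number is at least 3300; otherwise not called changed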
Meaning of the calls: active = migration changed; inactive = no migration change, or too few cells
This is an unselected part of about 18,000 deposited reagents. About 1,030 of all reagents (5.7%) were called active. 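Inactive calls also include pools with fewer than 3300 nuclei, whose migration was not assessed.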 Raw values are not corrected between plates. Entries without a mark were called inactive. Further read-outs or replicates are left out here. Reagent sequences are not shown.

How did the screen score ODF2L?
migration robust z-score: -0.36; nuclei per well, duplicate mean: 6468

How did the screen score TJP1?
migration robust z-score: 0.42; nuclei per well, duplicate mean: 6576

With GFM2, how do the results read?
migration robust z-score: 0.96; nuclei per well, duplicate mean: 5566

For FGF10, what was measured?
migration robust z-score: -0.65; nuclei per well, duplicate mean: 4562

With VPS37D, what was measured?
migration robust z-score: -0.81; nuclei per well, duplicate mean: 7610

Which result is listed for SCUBE3?
migration robust z-score: 0.98; nuclei per well, duplicate mean: 6325

What did the screen give for TBX10?
migration robust z-score: 0.74; nuclei per well, duplicate mean: 6179

With ISG20, what was measured?
migration robust z-score: -0.08; nuclei per well, duplicate mean: 6032

How did the screen score CDKN2D?
migration robust z-score: -5.53; nuclei per well, duplicate mean: 1445

For UBAC1, how do the results read?
migration robust z-score: -0.17; nuclei per well, duplicate mean: 6432

What is on record for RNF103?
migration robust z-score: 0.31; nuclei per well, duplicate mean: 4390

How did the screen score PRPSAP1?
migration robust z-score: 0.05; nuclei per well, duplicate mean: 5821

Which result is listed for F3?
migration robust z-score: -0.74; nuclei per well, duplicate mean: 6491

With PGLYRP4, what does the deposit list?
migration robust z-score: -2.88 (active); nuclei per well, duplicate mean: 7475

What is on record for SEC14L2?
migration robust z-score: 0.7; nuclei per well, duplicate mean: 4514

What is on record for CLEC4F?
migration robust z-score: -0.56; nuclei per well, duplicate mean: 5397

With TAF6, how do the results read?
migration robust z-score: 0.8; nuclei per well, duplicate mean: 5147

Which result is listed for RBM15B?
migration robust z-score: 0.55; nuclei per well, duplicate mean: 5036

How did the screen score DEFB114?
migration robust z-score: 0.05; nuclei per well, duplicate mean: 4062

For CCNYL1, what does the deposit list?
migration robust z-score: 0.52; nuclei per well, duplicate mean: 4818

Which result is listed for KLK5?
migration robust z-score: -2.34 (active); nuclei per well, duplicate mean: 3640

With TXN, what was measured?
migration robust z-score: -1.03; nuclei per well, duplicate mean: 3990

Which result is listed for CYP2B6?
migration robust z-score: 0.5; nuclei per well, duplicate mean: 5980

With RASSF2, what does the deposit list?
migration robust z-score: -0.9; nuclei per well, duplicate mean: 4138

With PEBP4, what does the deposit list?
migration robust z-score: 1.17; nuclei per well, duplicate mean: 5412

For CD1C, what was measured?
migration robust z-score: -0.28; nuclei per well, duplicate mean: 5964

With MEP1A, how do the results read?
migration robust z-score: 0.68; nuclei per well, duplicate mean: 6936

Reagents listed above marked active:
PGLYRP4 — migration robust z-score = -2.88 (active); nuclei per well, duplicate mean = 7475
KLK5 — migration robust z-score = -2.34 (active); nuclei per well, duplicate mean = 3640
